Results: US6630176B2, “Herbal remedies for treating allergies and asthma” (Mount Sinai School of Medicine of New York University, priority 2000, dated 2003)
For part of these data: For at least one compound, name, drawing or mass did not settle the structure. Some entries share one result that the patent states for a list of compounds.

Legend:
[1] = test system: serum CA-specific IgE and IgG2a; assay: Serum CA-specific antibodies by ELISA; assay type: in vivo, mouse (AKR/J); settings: vs sham (saline) treated group
[2] = test system: Ag-induced pulmonary inflammation, murine asthma model; assay: BALF total cell and differential (eosinophil) counts; assay type: in vivo, mouse (AKR/J)
[3] = test system: T cell cytokine production (IL-4, IL-5, IL-13, IFN-γ); assay: Cytokine levels in spleen cell culture supernatants (ELISA) from treated asthma-model mice; assay type: in vivo, mouse (AKR/J); settings: vs sham treated mice
bronchial mucus cells = settings: previously shown (Hermann et al. 1999); cited from earlier work
[4] = test system: murine model of allergic asthma (Ag-induced airway hyperresponsiveness); assay: Late-phase airway responsiveness (APTI after iv acetylcholine) in conalbumin-sensitized/challenged mice; assay type: in vivo, mouse (AKR/J)

C[C@@H]1C[C@H]2[C@@H]3CCC4=CC(=O)C=C[C@]4(C)[C@@]3(F)[C@@H](O)C[C@]2(C)[C@@]1(O)C(=O)CO [Dex, dexamethasone]
serum CA-specific IgE levels [1]: significantly decreased | serum CA-specific IgG2a levels [1]: significantly reduced | decrease of total number of cells in BALF compared to sham treated group ([2]; after airway response measurement): more than 50% | reduction of number of eosinophils in BALF ([2]; vs saline (sham 41% eosinophils)): more than 50% | IFN-γ levels in splenocyte cultures ([3]; 72 h culture): virtually abrogated | IL-4 levels in splenocyte culture supernatants ([3]; 72 h culture): virtually abrogated | IL-5 levels / production [3]: markedly decreased | IL-13 levels in splenocyte cultures [3]: markedly decreased | bronchial mucus cells (bronchial mucus cells): reduce | reduction of APTI levels compared to sham treated group ([4]; 3 days after last i.t. Ag challenge, MSSM-002 270 mg/mouse ig twice daily 18 days, Dex 0.5 mg/kg/day i.p.): more than 50% | effect on Ag-induced airway hyperresponsiveness (AHR) ([4]; murine model of allergic asthma): virtually eliminated AHR | difference between APTI levels in MSSM-002, Dex and normal control groups ([4]; p=0.59): no significant difference
